# In article PMC10413113:
# Sequences of proteins named here, by UniProt entry; tags and fusion partners are left off. Residues count along the entry.
# UniProt P58022, residues 26-776: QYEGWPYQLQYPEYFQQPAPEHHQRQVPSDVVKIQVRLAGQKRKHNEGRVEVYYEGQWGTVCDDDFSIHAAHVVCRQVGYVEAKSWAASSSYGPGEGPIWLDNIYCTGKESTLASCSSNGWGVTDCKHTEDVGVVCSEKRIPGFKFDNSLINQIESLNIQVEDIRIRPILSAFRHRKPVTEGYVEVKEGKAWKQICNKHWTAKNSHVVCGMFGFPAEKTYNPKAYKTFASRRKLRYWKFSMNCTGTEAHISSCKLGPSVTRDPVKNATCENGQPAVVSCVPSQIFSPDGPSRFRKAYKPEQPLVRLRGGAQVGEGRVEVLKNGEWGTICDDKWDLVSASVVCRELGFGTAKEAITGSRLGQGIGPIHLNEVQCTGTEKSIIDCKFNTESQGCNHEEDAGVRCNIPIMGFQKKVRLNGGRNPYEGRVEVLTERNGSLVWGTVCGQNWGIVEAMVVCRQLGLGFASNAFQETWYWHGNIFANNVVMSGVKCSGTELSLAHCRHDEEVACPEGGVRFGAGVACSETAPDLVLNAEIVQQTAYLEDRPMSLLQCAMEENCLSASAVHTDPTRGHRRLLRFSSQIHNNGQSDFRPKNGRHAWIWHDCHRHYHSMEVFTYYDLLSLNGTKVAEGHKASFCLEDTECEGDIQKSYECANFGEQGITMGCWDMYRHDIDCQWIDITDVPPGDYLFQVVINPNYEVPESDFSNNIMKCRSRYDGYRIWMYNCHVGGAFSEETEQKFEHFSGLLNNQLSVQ
# UniProt Q8R3H7: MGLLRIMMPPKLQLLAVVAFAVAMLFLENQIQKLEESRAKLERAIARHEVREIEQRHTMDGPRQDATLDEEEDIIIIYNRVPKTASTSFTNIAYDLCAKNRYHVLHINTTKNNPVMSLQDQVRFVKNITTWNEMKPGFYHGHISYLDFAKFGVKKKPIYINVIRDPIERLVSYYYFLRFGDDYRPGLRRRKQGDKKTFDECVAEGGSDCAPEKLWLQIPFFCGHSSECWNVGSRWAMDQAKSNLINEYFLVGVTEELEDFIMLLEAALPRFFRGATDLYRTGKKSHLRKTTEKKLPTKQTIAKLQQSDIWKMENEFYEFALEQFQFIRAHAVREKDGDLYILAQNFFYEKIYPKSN
# UniProt P59242: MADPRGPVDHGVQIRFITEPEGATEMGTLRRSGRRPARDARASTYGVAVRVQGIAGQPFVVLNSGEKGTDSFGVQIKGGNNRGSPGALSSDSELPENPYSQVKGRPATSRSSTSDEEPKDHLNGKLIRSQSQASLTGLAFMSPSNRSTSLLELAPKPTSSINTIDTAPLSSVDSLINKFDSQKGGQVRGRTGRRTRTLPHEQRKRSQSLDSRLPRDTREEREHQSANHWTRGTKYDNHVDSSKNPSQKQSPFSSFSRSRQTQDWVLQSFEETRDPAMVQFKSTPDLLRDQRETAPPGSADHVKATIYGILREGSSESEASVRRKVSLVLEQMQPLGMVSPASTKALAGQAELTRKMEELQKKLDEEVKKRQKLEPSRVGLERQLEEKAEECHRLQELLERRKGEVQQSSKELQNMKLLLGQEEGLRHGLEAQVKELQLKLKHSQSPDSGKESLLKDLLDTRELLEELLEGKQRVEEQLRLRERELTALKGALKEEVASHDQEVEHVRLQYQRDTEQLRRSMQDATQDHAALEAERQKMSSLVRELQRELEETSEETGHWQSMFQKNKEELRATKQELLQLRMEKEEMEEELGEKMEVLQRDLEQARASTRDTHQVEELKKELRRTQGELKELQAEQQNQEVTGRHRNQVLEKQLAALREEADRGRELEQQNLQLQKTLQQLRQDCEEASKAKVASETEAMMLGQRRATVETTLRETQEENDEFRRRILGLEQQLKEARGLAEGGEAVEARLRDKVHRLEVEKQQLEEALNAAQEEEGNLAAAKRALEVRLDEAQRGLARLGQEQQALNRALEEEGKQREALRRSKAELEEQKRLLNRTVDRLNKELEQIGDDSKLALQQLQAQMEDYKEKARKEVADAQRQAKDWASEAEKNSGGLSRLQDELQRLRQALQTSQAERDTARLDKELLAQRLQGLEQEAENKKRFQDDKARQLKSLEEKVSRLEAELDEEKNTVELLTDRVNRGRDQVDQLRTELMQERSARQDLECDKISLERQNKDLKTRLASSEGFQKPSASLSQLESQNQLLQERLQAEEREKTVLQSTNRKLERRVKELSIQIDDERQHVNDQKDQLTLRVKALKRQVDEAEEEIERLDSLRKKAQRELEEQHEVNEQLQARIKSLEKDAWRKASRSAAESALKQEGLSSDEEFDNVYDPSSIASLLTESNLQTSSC
# No constants are given. Whether binding was seen depends on the method and setting. Binding seen in cells or lysates may run through a third protein. Here binding means that the protein was enriched with, or labelled near, the bait; the list need not be complete.
# Biological target: T1, EVC (endogenous mouse EVC protein) (mouse (endogenous in MEFs)) (UniProt P57680)
# T1 sequence: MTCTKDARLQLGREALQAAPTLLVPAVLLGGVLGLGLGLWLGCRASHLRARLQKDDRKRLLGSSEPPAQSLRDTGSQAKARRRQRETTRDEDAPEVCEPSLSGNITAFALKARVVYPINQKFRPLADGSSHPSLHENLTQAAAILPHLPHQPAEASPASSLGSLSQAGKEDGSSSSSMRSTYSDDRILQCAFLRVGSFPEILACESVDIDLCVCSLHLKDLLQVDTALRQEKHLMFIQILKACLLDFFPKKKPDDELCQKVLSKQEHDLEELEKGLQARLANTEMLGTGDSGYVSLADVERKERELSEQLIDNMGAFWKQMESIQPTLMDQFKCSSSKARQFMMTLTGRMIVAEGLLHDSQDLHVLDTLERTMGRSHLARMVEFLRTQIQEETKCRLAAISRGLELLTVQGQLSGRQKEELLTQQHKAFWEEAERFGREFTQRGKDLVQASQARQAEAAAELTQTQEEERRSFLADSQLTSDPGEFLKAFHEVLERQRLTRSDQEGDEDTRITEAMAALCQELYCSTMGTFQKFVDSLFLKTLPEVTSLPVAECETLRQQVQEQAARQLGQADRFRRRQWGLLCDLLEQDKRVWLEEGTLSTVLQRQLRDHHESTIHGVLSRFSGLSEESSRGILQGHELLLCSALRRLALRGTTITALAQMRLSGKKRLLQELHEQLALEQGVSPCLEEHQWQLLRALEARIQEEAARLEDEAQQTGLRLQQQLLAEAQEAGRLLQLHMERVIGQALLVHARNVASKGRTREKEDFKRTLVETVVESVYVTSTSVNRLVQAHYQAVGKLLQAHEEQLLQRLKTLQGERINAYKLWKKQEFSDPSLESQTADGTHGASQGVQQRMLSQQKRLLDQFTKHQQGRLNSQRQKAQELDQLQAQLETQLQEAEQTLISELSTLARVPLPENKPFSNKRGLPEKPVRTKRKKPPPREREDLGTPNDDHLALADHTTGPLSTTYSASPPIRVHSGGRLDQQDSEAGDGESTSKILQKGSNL
# Test: affinity purification with mass spectrometry; mouse monoclonal anti-EVC on Dynabeads; lysates of serum-starved Evc+/+ MEFs, Evc-/- MEFs as negative control; 1X IP buffer with 25 mM NaCl, overnight at 4°C; LC-ESI-MS/MS; n = 3
row,binding,Substance
1,binds,LOXL2 (from UniProt P58022 26-776)
2,binds,HS2ST1 (from UniProt Q8R3H7 1-356)
3,binds,Cingulin (CGN) (from UniProt P59242 1-1191)
